According to paper PMC10870245:
Results are given in words; binding and its absence hold for the method and conditions named. Binding seen in cells or lysates may run through a third protein. Some results given as binding are weak or reduced against the parent protein; the word gives no strength. Sequences can lack the tags named with a protein.

Target: T1, PDZ-binding kinase (FLAG-PBK) (UniProt Q96KB5)
T1 sequence: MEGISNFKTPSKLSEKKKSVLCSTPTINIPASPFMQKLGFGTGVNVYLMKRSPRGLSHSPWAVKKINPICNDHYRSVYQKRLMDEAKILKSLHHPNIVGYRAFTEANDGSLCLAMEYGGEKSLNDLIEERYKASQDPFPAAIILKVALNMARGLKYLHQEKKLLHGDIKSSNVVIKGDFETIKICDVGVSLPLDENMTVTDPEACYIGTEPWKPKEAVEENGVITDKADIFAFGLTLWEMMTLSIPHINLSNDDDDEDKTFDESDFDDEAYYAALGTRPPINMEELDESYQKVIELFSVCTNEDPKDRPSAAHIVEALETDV
Assay: co-IP; HEK293 cells transfected with GFP-CDK5 and FLAG-PBK; beads with anti-FLAG or GFP antibodies; Western blot

binding: binds
Substance: cyclin-dependent kinase 5 (GFP-CDK5) (from UniProt Q00535 1-292) (enzyme)
